Measurements: paper PMC5240148
No constants are given. Whether binding was seen depends on the method and setting. In cells and extracts the contact can be indirect. Some binding calls cover weakened binding; strength is not graded here. For some of these results: Sequences can lack the tags named with a protein.

Protein sequences, listed by entry. Tags and fused reporters are not part of them.
UniProt Q99873: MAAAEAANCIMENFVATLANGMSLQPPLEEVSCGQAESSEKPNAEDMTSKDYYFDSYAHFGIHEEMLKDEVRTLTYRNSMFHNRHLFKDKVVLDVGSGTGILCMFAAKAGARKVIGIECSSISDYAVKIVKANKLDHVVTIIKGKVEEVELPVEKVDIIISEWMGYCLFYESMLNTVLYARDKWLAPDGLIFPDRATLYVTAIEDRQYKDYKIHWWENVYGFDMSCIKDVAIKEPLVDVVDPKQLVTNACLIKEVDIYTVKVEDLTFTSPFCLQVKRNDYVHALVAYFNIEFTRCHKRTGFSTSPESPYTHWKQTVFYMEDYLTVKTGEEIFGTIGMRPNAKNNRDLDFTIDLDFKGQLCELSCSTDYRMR
UniProt Q9JIF0: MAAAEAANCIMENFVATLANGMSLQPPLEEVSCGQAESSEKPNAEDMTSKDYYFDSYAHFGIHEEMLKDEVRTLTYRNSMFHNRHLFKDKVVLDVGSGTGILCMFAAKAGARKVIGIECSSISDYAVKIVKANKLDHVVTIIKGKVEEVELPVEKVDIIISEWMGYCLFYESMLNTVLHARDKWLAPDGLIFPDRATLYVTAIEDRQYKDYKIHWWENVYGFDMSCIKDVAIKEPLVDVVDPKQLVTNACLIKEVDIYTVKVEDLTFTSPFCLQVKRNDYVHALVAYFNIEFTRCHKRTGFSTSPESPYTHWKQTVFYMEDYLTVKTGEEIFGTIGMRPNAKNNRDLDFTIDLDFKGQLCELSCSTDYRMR

What was measured:
[1] = target: T1, FLAG-tagged CIITA (class II transactivator) (UniProt P33076); assay: co-IP; HEK293 cells transfected with GFP-PRMT1 with or without FLAG-CIITA; whole cell lysates in RIPA buffer (50 mM Tris pH7.4, 150 mM NaCl, 1% Triton X-100); FLAG-conjugated beads (M2) overnight, eluted with 3X FLAG peptide; blot with anti-FLAG or anti-GFP
T1 sequence: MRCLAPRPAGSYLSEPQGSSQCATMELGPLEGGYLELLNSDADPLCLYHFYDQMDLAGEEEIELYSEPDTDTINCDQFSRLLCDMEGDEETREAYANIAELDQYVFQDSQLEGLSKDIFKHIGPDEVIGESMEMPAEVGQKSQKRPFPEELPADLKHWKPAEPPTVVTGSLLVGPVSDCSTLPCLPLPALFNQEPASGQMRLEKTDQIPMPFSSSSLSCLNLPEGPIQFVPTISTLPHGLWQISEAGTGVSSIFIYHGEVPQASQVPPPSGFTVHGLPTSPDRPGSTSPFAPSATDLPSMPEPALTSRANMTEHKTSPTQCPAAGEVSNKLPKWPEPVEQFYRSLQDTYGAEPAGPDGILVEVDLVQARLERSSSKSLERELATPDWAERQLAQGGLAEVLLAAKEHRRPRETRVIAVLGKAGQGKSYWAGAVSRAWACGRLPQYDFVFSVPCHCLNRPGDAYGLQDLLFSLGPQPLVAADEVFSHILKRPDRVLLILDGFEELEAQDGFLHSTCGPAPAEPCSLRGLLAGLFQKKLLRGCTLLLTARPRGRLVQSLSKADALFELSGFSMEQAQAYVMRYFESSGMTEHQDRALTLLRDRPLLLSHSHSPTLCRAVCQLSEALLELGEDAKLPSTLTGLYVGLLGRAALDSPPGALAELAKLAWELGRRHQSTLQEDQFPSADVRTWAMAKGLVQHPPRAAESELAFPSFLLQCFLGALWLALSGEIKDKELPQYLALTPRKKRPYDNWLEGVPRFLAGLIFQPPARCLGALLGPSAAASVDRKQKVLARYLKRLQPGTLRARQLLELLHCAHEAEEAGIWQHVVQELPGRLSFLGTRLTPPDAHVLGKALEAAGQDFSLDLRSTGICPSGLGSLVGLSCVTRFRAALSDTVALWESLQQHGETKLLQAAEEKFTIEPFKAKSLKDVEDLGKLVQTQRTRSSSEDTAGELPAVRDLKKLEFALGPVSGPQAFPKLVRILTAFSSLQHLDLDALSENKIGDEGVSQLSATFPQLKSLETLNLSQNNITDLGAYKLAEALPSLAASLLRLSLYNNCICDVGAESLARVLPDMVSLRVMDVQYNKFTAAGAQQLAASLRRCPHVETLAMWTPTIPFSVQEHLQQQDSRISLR

[2] = target: T2, endogenous CIITA (class II transactivator) of mouse macrophage cells (RAW264) (mouse (endogenous in RAW264)) (UniProt P79621); assay: co-IP; endogenous proteins; RAW264 cells treated with IFN-γ for 24 hours; whole cell lysates immunoprecipitated with anti-CIITA (control IgG beside it)
T2 sequence: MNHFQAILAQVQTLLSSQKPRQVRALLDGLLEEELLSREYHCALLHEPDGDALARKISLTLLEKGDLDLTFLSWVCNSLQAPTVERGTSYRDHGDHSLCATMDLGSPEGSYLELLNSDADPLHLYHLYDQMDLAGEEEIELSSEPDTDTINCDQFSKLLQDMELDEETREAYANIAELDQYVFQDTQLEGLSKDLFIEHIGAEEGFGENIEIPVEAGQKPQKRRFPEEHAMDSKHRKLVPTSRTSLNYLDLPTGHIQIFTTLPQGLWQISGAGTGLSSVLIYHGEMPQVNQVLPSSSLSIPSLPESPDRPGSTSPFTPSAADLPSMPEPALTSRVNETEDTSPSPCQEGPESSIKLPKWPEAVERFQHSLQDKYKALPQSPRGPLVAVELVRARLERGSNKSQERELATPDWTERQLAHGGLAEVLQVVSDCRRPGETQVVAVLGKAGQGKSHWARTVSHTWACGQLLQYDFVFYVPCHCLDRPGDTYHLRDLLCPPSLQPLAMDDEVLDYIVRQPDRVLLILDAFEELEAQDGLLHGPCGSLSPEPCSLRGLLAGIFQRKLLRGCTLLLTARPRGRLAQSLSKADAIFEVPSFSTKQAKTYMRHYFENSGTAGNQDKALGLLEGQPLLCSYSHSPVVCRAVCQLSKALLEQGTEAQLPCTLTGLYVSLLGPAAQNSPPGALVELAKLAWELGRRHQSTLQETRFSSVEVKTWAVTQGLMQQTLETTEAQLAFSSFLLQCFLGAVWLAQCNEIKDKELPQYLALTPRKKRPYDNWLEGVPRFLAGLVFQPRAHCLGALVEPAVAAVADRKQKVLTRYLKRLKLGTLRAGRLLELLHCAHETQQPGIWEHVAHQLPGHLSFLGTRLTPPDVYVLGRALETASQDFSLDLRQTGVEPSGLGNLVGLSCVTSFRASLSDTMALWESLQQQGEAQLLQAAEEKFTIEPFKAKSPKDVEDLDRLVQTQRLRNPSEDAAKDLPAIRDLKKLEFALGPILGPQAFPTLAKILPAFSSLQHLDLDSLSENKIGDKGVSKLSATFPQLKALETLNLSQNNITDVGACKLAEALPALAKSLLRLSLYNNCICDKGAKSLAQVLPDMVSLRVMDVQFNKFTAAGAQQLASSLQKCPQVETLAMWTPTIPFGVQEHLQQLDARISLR

[3] = target: GFP-tagged PRMT1 (protein arginine methyltransferase 1) (UniProt Q99873); assay: co-IP; reciprocal: HEK293 cells transfected with FLAG-CIITA with or without GFP-PRMT1; immunoprecipitation with anti-GFP; blot with anti-FLAG or anti-GFP
[4] = target: endogenous PRMT1 (protein arginine methyltransferase 1) of mouse macrophage cells (RAW264) (mouse (endogenous in RAW264)) (UniProt Q9JIF0); assay: co-IP; endogenous proteins; RAW264 cells treated with IFN-γ for 24 hours; whole cell lysates immunoprecipitated with anti-PRMT1 (control IgG beside it)

For “GFP-tagged PRMT1 (protein arginine methyltransferase 1) (from UniProt Q99873 1-371) (enzyme)”, the binding [1] was “binds”.

“endogenous PRMT1 (protein arginine methyltransferase 1) of mouse macrophage cells (RAW264) (from UniProt Q9JIF0 1-371) (enzyme)” was tested, and the binding [2] was “binds”.

B1: FLAG-tagged CIITA (class II transactivator) (protein, UniProt P33076 1-1130)
chain: T1 sequence
For B1, the binding [3] was “binds”.

B2: endogenous CIITA (class II transactivator) of mouse macrophage cells (RAW264) (protein, UniProt P79621 1-1155)
chain: T2 sequence
B2 was tested, and the binding [4] was “binds”.
